Assay results: patent US20210093714A1, “Combination and method for inhibiting the cancer cells” (NATIONAL TAIWAN UNIVERSITY, priority 2013, published 2021)
No constants are given. Whether binding was seen depends on the method and setting. Binding seen in cells or lysates may run through a third protein. Some binding calls cover weakened binding; strength is not graded here.

Amino acid sequences for entries named in this document (tags omitted). A change or cut given only in a name is not applied to a line headed by its entry. Chains listed by the source or under a name are the forms on record and can include a tag or linker.
β-pix (Q14155, form named): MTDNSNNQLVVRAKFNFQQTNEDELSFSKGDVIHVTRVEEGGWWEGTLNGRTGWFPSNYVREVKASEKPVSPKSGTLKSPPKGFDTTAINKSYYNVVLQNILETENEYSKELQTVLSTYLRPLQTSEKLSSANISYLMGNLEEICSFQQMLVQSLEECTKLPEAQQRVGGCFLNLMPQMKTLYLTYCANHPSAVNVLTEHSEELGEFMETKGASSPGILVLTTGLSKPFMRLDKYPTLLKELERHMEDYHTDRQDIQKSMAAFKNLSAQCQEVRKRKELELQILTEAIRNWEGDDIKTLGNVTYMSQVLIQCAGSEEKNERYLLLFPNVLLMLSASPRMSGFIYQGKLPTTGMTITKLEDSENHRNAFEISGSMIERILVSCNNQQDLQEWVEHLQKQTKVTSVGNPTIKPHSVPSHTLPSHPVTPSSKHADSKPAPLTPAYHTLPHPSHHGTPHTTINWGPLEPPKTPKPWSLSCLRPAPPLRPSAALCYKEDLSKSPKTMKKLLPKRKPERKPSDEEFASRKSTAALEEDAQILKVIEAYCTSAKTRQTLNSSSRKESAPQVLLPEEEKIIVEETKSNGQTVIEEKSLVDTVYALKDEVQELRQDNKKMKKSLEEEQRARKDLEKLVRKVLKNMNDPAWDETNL

Biological target: c-casitas B-lineage lymphoma (c-Cbl) (UniProt P22681)
Assay: co-immunoprecipitation with anti-β-pix and anti-c-Cbl from CL1-5, A549 and CL1-0/siCCN2 lysates (FIG. 4F)

- binding: binds
Substance: β-pix (from UniProt Q14155 1-646)
